# In PubChem BioAssay AID330 (DTP/NCI, 2004):
# The list does not hold the whole screen: it is rich in T/C values a quarter to a half above the control, in often repeated tests (any T/C) and in doses without a T/C. Other doses and runs of a compound stand elsewhere. T/C is the treated group as % of the vehicle group. Some entries give survivors of the animals treated and no T/C: the source holds a T/C of zero for them, seemingly a mark for toxic or unscored doses. Some survivor counts are full or nearly so, which does not show that the dose was tolerated: the source hardly ever lists a survival T/C far under the control, and the zero likely stands for such cases as well. Survivors were counted at the toxicity check, usually on the fifth day, unless a day is given; later deaths do not show. Schedules are NCI's codes, read here as Q, the interval in days (D) or hours (H), X, the number of doses. Some entries hold several experiments; the values are given in rising order. For survival time, the PubChem record calls one and a half times the control and up active, and a quarter to a half above the control has no call in these data; cut-offs in other NCI protocols can differ. Some T/C values are followed by the survivors on the day toxicity was checked, most often the fifth; where none is given, no animal had died by that day.
# System: P388 leukemia ip, CD2F1 mice, survival T/C
# Experiment: NCI In Vivo Anticancer Drug Screen. Data for tumor model P388 Leukemia (intraperitoneal) in CD2F1 (CDF1) mice
# Conditions: T/C endpoint: median survival time, higher T/C = longer survival
# [1] = dose: 200.0 mg/kg/injection, schedule: Q01DX009 (ip), vehicle: saline with Tween-80
# [2] = dose: 400.0 mg/kg/injection, schedule: Q01DX009 (ip), vehicle: saline with Tween-80
# [3] = dose: 50.0 mg/kg/injection, schedule: Q01DX009 (ip), vehicle: Klucel (hydroxypropylcellulose) (HPC)
# [4] = dose: 200.0 mg/kg/injection, schedule: Q01DX009 (ip), vehicle: Klucel (hydroxypropylcellulose) (HPC)
# [5] = dose: 400.0 mg/kg/injection, schedule: Q01DX009 (ip), vehicle: Klucel (hydroxypropylcellulose) (HPC)
# [6] = dose: 240.0 mg/kg/injection, schedule: Q01DX005 (ip), vehicle: saline with Tween-80
# [7] = dose: 100.0 mg/kg/injection, schedule: Q01DX005 (ip), vehicle: saline with Tween-80
# [8] = dose: 400.0 mg/kg/injection, schedule: Q04DX003 (ip), vehicle: Klucel (hydroxypropylcellulose) (HPC)
# [9] = dose: 200.0 mg/kg/injection, schedule: Q01DX005 (ip), vehicle: saline with Tween-80
smiles,measurement,setting,value
COc1cccc2c1C(=O)c1c(O)c3c(c(O)c1C2=O)C[C@@](O)(C(=O)COC(=O)Cc1cccc2ccccc12)C[C@@H]3OC1CC(N)C(O)C(C)O1 (stereo partly drawn),T/C,"dose: 0.5 mg/kg/injection, schedule: Q01DX009 (ip), vehicle: saline with Tween-80",139 % of control
same,T/C,"dose: 1.0 mg/kg/injection, schedule: Q01DX009 (ip), vehicle: saline with Tween-80",145 % of control
same,T/C,"dose: 2.0 mg/kg/injection, schedule: Q01DX009 (ip), vehicle: saline with Tween-80",136 % of control
same,survivor count,"dose: 6.25 mg/kg/injection, schedule: Q01DX009 (ip), vehicle: other",6 of 6
same,survivor count,"dose: 8.0 mg/kg/injection, schedule: Q01DX009 (ip), vehicle: other",6 of 6
same,T/C,"dose: 8.0 mg/kg/injection, schedule: Q01DX009 (ip), vehicle: saline with Tween-80",128 % of control
same,survivor count,"dose: 8.0 mg/kg/injection, schedule: Q01DX009 (ip), vehicle: saline",9 of 10
same,survivor count,"dose: 12.5 mg/kg/injection, schedule: Q01DX009 (ip), vehicle: other",6 of 6
same,survivor count,"dose: 16.0 mg/kg/injection, schedule: Q01DX009 (ip), vehicle: saline with Tween-80",10 of 10
same,survivor count,"dose: 16.0 mg/kg/injection, schedule: Q01DX009 (ip), vehicle: saline",7 of 10
COC12c3c(C)cc(O)c4c(=O)occ(c34)C(=O)C1C13COC(=O)c4c(O)cc(C)c(c41)C(=O)C2C3OC(C)=O (stereo not drawn),survivor count,[1],"2 of 3, 3 of 4, 4 of 5"
same,survivor count,[2],0 of 3
COc1cccc2c1C(=O)c1c(O)c3c(c(O)c1C2=O)C[C@@](O)(C(C)O)C[C@@H]3OC1CC(N(C)C)C(O)C(C)O1 (stereo partly drawn),T/C,"dose: 0.2 mg/kg/injection, schedule: Q01DX009 (ip), vehicle: water",136 % of control
same,T/C,"dose: 0.78 mg/kg/injection, schedule: Q01DX009 (ip), vehicle: water",131 % of control
same,T/C,"dose: 4.7 mg/kg/injection, schedule: Q04DX003 (ip), vehicle: water",129 % of control
same,survivor count,"dose: 12.5 mg/kg/injection, schedule: Q01DX009 (ip), vehicle: water",3 of 3 and 6 of 6
same,T/C,"dose: 18.8 mg/kg/injection, schedule: Q04DX003 (ip), vehicle: water",138 % of control
same,survivor count,"dose: 25.0 mg/kg/injection, schedule: Q01DX009 (ip), vehicle: water",3 of 3
same,T/C,"dose: 37.5 mg/kg/injection, schedule: Q04DX003 (ip), vehicle: water",138 % of control
CC(=O)N/N=C/c1ccccc1[N+](=O)[O-],survivor count,"dose: 200.0 mg/kg/injection, schedule: Q01DX009 (ip), vehicle: other",0 of 6
O=C(O)c1cccc([N+](=O)[O-])c1O,survivor count,[3],0 of 6
same,survivor count,"dose: 100.0 mg/kg/injection, schedule: Q01DX009 (ip), vehicle: Klucel (hydroxypropylcellulose) (HPC)",0 of 6
same,survivor count,[4],0 of 6
same,survivor count,[5],0 of 6
O=c1[nH]c2c(=O)[nH][nH]c(=O)c2[nH]c1=O,survivor count,"dose: 120.0 mg/kg/injection, schedule: Q01DX005 (ip), vehicle: saline with Tween-80",1 of 6
same,survivor count,[6],0 of 6
CCCC(=O)C1C(c2ccccc2)CC(=O)C(CC)C1c1ccccc1 (stereo not drawn),survivor count,[7],5 of 5
O=C(CCl)N1CCN(C/C=C/c2ccccc2)CC1,survivor count,"dose: 240.0 mg/kg/injection, schedule: Q01DX005 (ip), vehicle: saline",3 of 6
O=C1CN(c2ccccc2)C(=O)CN1Nc1ccccc1,survivor count,[1],6 of 6
CCC(C)C1C(=O)O[B-](F)(F)/[N+]1=C\c1ccccc1 (stereo not drawn),survivor count,[8],0 of 6
COc1cc2c(c(OC)c1OC)-c1ccc(OC)c(=O)cc1[C@@H](NC(=O)CF)CC2,T/C,"dose: 46.8 micrograms/kg/injection, schedule: Q01DX009 (ip), vehicle: saline",140 % of control
same,T/C,"dose: 62.5 micrograms/kg/injection, schedule: Q04DX003 (ip), vehicle: saline",145 % of control
same,T/C,"dose: 125.0 micrograms/kg/injection, schedule: Q04DX003 (ip), vehicle: saline",140 % of control
same,survivor count,"dose: 750.0 micrograms/kg/injection, schedule: Q01DX009 (ip), vehicle: saline",6 of 6
same,survivor count,"dose: 1000.0 micrograms/kg/injection, schedule: Q04DX003 (ip), vehicle: saline",6 of 6
CNC1C(O)C2Oc3c(cc(O)c4c3C(=O)c3cc5c(c(O)c3C4=O)C(OC3OC(C)C(OC)C(C)(OC)C3OC)CC(C)(O)C5C(=O)OC)C(C)(O2)C1O (stereo not drawn),survivor count,"dose: 50.0 mg/kg/injection, schedule: Q04DX003 (ip), vehicle: other",5 of 6
COC(=O)c1c(-c2cc(OC)c(OC)cc2[N+](=O)[O-])cn(C)c1C,survivor count,[9],6 of 6
CCC1CN2CCC1CC2C(O)c1ccnc2ccc(OC)cc12 (stereo not drawn),survivor count,[9],2 of 6
O=[N+]([O-])c1cccc2ccc(N/N=C/c3ccccc3O)nc12,survivor count,"dose: 25.0 mg/kg/injection, schedule: Q01DX009 (ip), vehicle: Klucel (hydroxypropylcellulose) (HPC)",3 of 6
same,survivor count,[3],5 of 6
same,survivor count,[4],5 of 6
same,survivor count,[5],6 of 6
Nc1ccc([N+](=O)[O-])cc1Nc1c2ccccc2nc2ccccc12,survivor count,[4],1 of 6
Cc1ccc2nc3ccccc3c(SCCCCCCSc3c4ccccc4nc4ccc(C)cc34)c2c1,survivor count,"dose: 60.0 mg/kg/injection, schedule: Q01DX005 (ip), vehicle: Klucel (hydroxypropylcellulose) (HPC)",6 of 6
same,survivor count,"dose: 120.0 mg/kg/injection, schedule: Q01DX005 (ip), vehicle: Klucel (hydroxypropylcellulose) (HPC)",6 of 6
same,survivor count,[6],6 of 6
NC(CSC(c1ccccc1)(c1ccccc1)c1ccccc1)C(=O)OC(c1ccccc1)c1ccccc1 (stereo not drawn),T/C,"dose: 100.0 mg/kg/injection, schedule: Q04DX003 (ip), vehicle: saline with Tween-80",127 % of control
same,T/C,"dose: 200.0 mg/kg/injection, schedule: Q04DX003 (ip), vehicle: saline with Tween-80",131 % of control
same,T/C,"dose: 264.0 mg/kg/injection, schedule: Q04DX003 (ip), vehicle: saline with Tween-80",136 % of control
CS(=O)(=O)OCCN(CCOS(C)(=O)=O)c1cccc(C(F)(F)F)c1,T/C,"dose: 6.25 mg/kg/injection, schedule: Q04DX003 (ip), vehicle: saline with Tween-80",130 % of control
same,T/C,"dose: 12.5 mg/kg/injection, schedule: Q04DX003 (ip), vehicle: saline with Tween-80",140 % of control
same,T/C,"dose: 25.0 mg/kg/injection, schedule: Q01DX009 (ip), vehicle: saline with Tween-80",145 % of control
O=C1COC(c2ccccc2O)=NN1CCCN1CCCC1,survivor count,"dose: 200.0 mg/kg/injection, schedule: Q01DX001 (ip), vehicle: saline",0 of 6
CC1C2CC3OC(=O)C1C3C2 (stereo not drawn),survivor count,[7],0 of 6
same,survivor count,[9],0 of 6
COC(=O)C12OCC34C(CC5C(C)=CC(=O)C(O)C5(C)C3C(O)C1O)OC(=O)C(OC(=O)CC(C)C)C24 (stereo not drawn),T/C,"dose: 0.5 mg/kg/injection, schedule: Q01DX009 (ip), vehicle: saline + alcohol",135 % of control
same,T/C,"dose: 1.0 mg/kg/injection, schedule: Q01DX009 (ip), vehicle: saline + alcohol",135 and 146 % of control
same,T/C,"dose: 2.0 mg/kg/injection, schedule: Q01DX009 (ip), vehicle: saline + alcohol",148 % of control [5 of 6 alive]
same,survivor count,"dose: 4.0 mg/kg/injection, schedule: Q01DX009 (ip), vehicle: saline + alcohol",0 of 6
same,survivor count,"dose: 4.5 mg/kg/injection, schedule: Q01DX009 (ip), vehicle: saline + alcohol",0 of 6
same,survivor count,"dose: 9.0 mg/kg/injection, schedule: Q01DX009 (ip), vehicle: saline + alcohol",0 of 6
same,survivor count,"dose: 18.0 mg/kg/injection, schedule: Q01DX009 (ip), vehicle: saline + alcohol",0 of 6
same,survivor count,"dose: 36.0 mg/kg/injection, schedule: Q01DX009 (ip), vehicle: saline + alcohol",0 of 5
CCN(CC)CCNc1ccc(N)c2sc3ccccc3c(=O)c12,T/C,[1],125 % of control [5 of 6 alive]
same,survivor count,[1],4 of 6
same,survivor count,[2],0 of 6
CCOC(=O)/C(C#N)=C1/CCCN1C,survivor count,[8],6 of 6
CCCCCCCCCCCCCCCC[N+]1(CCCCCCCCCCCC)CCSCC1 (tested in a mixture with another compound),T/C,"dose: 20.0 mg/kg/injection, schedule: Q01DX009 (ip), vehicle: saline with Tween-80",139 % of control
